From publication PMC7927628
No constants are given. Whether binding was seen depends on the method and setting. In cells and extracts the contact can be indirect. Some results given as binding are weak or reduced against the parent protein; the word gives no strength.

The chains behind the UniProt entries cited, without tags or fusion partners.
UniProt O75901: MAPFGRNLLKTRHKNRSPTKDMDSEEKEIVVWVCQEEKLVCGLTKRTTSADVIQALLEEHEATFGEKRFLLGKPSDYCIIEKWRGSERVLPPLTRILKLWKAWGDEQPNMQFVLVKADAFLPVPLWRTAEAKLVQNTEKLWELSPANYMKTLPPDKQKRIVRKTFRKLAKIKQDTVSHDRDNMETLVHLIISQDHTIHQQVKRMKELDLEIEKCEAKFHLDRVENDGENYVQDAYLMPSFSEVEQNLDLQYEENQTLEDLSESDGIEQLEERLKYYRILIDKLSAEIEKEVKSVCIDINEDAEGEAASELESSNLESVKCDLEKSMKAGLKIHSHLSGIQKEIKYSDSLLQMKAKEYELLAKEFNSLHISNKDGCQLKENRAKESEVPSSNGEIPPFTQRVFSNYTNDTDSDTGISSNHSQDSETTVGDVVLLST

Key:
[1] = molecular target: T1, TGF‐β‐activated kinase 1 (TAK1) (UniProt O43318); test: pull-down; pull-down of TAK1 and RASSF9 (Figure S10D,E); details only in the Supporting Information
T1 sequence: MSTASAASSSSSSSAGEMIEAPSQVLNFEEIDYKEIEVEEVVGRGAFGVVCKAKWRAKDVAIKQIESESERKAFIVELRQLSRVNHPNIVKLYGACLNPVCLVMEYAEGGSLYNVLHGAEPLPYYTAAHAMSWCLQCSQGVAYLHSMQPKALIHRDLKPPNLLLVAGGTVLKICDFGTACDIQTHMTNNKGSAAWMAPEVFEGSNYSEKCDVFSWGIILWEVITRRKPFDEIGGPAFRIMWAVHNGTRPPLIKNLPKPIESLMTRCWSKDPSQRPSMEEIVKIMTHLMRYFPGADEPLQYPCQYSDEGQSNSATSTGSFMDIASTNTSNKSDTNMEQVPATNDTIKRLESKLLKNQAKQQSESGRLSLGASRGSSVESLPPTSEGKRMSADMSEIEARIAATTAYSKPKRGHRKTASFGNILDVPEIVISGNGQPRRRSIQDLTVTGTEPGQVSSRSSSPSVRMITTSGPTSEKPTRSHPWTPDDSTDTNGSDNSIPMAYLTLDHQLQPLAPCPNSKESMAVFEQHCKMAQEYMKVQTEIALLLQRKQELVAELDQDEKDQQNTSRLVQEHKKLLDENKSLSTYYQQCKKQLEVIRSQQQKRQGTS

[2] = molecular target: T1, TGF‐β‐activated kinase 1 (TAK1); test: co-IP; co-immunoprecipitation of TAK1 and RASSF9 (Figure S10D,E); details only in the Supporting Information

binding [1]: binds
binding [2]: binds
Substance: Ras association domain family 9 (RASSF9) (from UniProt O75901 1-435)
